Measurements reported in ChEMBL document CHEMBL4808148, “HDAC6 screening dataset using tau-based substrate in an enzymatic assay yields selective inhibitors and activators” (2021).
What follows is the remainder of the data, with few or none of the strong results.

What follows are molecules tested against T1, Protein deacetylase HDAC6 (Homo sapiens) (UniProt Q9UBN7). Conditions: at 10 µM.
T1 sequence (whole entry): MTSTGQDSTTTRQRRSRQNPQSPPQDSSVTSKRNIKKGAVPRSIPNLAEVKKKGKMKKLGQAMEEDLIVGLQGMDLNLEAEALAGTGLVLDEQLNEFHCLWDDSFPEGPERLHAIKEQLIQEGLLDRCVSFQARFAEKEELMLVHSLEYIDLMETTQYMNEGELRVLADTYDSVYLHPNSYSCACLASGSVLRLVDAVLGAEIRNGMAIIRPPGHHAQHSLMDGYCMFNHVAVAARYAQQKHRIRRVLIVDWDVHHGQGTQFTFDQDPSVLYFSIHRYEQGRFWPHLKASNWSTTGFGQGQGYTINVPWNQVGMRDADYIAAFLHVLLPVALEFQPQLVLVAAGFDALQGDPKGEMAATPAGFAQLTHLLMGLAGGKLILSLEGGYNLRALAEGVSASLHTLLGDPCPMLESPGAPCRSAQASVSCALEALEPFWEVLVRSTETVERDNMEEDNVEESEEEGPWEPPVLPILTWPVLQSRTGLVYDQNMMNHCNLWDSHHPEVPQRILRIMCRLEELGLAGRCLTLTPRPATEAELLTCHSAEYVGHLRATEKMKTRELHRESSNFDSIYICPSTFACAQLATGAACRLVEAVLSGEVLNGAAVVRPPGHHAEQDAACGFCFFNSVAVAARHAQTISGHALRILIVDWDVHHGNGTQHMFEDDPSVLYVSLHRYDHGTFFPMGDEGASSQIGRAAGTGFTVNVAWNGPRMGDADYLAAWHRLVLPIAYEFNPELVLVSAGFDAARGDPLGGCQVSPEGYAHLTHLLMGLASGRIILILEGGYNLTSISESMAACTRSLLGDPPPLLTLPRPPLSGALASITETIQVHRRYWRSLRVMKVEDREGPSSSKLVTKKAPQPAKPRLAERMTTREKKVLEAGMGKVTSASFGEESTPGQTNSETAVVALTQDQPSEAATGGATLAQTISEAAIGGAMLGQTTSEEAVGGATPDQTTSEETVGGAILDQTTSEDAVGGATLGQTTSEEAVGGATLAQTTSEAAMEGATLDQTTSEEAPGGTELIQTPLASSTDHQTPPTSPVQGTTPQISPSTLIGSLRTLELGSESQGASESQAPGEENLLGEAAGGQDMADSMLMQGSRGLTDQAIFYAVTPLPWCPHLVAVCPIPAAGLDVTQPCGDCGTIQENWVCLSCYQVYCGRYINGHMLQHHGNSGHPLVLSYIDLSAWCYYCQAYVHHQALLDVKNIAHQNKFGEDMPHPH

Compound	inhibition [%]
O=C1NC(=O)c2c1c(-c1ccccc1)cc1[nH]c3ccc(O)cc3c21	2.58
Cc1ccc(C(=O)NCCCCCC(=O)Nc2ccccc2N)cc1	-1.71
CCC(C)C(C(=O)OCC[N+](C)(CC)CC)c1ccccc1 (configuration not stated)	0.49
COC(=O)[C@H](CCCNC(=N)N)NS(=O)(=O)c1ccc(C)cc1	-5.01
Cc1nc2c(-c3cnc(N)nc3)nc(N3CCOCC3)nc2n1C(C)C	1.6
CN1[C@@H]2CC[C@H]1C[C@@H](OC(=O)C(O)c1ccccc1)C2 (some centres not stated)	7.69
Cc1ccccc1-n1c(Cn2nc(-c3cccc(O)c3)c3c(N)ncnc32)nc2cccc(C)c2c1=O	-2.84
